From publication PMC8371122 come the findings set out here.

Amino acid sequences for entries named in this document (tags omitted). Residues count along the entry.
UniProt Q8BPU7: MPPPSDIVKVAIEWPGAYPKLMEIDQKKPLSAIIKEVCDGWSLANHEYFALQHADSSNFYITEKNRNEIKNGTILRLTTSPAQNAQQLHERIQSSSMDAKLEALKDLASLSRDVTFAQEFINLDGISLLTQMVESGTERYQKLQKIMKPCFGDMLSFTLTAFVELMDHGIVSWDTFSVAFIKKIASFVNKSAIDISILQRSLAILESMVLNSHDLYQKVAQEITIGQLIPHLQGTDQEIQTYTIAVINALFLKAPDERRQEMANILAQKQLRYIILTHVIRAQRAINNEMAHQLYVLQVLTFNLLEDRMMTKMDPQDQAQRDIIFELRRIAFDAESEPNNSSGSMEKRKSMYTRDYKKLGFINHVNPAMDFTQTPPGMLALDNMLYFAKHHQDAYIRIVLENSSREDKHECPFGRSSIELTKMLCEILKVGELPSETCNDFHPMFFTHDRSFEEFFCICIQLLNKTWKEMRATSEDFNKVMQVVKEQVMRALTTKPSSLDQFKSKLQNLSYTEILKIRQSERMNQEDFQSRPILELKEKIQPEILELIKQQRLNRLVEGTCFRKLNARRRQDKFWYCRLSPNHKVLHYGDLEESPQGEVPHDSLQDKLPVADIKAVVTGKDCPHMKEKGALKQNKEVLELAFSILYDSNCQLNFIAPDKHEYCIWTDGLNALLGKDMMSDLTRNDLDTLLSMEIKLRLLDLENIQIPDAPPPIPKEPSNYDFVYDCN
UniProt Q80SY3: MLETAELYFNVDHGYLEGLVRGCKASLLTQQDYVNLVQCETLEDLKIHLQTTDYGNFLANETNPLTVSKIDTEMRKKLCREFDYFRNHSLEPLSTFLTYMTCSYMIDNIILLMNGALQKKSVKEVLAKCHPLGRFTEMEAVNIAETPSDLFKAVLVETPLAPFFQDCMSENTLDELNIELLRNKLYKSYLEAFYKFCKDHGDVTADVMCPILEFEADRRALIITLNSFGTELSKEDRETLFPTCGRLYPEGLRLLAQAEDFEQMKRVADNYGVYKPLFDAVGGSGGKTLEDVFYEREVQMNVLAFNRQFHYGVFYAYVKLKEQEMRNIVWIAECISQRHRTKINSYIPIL
UniProt Q91ZX7, residues 20-4545: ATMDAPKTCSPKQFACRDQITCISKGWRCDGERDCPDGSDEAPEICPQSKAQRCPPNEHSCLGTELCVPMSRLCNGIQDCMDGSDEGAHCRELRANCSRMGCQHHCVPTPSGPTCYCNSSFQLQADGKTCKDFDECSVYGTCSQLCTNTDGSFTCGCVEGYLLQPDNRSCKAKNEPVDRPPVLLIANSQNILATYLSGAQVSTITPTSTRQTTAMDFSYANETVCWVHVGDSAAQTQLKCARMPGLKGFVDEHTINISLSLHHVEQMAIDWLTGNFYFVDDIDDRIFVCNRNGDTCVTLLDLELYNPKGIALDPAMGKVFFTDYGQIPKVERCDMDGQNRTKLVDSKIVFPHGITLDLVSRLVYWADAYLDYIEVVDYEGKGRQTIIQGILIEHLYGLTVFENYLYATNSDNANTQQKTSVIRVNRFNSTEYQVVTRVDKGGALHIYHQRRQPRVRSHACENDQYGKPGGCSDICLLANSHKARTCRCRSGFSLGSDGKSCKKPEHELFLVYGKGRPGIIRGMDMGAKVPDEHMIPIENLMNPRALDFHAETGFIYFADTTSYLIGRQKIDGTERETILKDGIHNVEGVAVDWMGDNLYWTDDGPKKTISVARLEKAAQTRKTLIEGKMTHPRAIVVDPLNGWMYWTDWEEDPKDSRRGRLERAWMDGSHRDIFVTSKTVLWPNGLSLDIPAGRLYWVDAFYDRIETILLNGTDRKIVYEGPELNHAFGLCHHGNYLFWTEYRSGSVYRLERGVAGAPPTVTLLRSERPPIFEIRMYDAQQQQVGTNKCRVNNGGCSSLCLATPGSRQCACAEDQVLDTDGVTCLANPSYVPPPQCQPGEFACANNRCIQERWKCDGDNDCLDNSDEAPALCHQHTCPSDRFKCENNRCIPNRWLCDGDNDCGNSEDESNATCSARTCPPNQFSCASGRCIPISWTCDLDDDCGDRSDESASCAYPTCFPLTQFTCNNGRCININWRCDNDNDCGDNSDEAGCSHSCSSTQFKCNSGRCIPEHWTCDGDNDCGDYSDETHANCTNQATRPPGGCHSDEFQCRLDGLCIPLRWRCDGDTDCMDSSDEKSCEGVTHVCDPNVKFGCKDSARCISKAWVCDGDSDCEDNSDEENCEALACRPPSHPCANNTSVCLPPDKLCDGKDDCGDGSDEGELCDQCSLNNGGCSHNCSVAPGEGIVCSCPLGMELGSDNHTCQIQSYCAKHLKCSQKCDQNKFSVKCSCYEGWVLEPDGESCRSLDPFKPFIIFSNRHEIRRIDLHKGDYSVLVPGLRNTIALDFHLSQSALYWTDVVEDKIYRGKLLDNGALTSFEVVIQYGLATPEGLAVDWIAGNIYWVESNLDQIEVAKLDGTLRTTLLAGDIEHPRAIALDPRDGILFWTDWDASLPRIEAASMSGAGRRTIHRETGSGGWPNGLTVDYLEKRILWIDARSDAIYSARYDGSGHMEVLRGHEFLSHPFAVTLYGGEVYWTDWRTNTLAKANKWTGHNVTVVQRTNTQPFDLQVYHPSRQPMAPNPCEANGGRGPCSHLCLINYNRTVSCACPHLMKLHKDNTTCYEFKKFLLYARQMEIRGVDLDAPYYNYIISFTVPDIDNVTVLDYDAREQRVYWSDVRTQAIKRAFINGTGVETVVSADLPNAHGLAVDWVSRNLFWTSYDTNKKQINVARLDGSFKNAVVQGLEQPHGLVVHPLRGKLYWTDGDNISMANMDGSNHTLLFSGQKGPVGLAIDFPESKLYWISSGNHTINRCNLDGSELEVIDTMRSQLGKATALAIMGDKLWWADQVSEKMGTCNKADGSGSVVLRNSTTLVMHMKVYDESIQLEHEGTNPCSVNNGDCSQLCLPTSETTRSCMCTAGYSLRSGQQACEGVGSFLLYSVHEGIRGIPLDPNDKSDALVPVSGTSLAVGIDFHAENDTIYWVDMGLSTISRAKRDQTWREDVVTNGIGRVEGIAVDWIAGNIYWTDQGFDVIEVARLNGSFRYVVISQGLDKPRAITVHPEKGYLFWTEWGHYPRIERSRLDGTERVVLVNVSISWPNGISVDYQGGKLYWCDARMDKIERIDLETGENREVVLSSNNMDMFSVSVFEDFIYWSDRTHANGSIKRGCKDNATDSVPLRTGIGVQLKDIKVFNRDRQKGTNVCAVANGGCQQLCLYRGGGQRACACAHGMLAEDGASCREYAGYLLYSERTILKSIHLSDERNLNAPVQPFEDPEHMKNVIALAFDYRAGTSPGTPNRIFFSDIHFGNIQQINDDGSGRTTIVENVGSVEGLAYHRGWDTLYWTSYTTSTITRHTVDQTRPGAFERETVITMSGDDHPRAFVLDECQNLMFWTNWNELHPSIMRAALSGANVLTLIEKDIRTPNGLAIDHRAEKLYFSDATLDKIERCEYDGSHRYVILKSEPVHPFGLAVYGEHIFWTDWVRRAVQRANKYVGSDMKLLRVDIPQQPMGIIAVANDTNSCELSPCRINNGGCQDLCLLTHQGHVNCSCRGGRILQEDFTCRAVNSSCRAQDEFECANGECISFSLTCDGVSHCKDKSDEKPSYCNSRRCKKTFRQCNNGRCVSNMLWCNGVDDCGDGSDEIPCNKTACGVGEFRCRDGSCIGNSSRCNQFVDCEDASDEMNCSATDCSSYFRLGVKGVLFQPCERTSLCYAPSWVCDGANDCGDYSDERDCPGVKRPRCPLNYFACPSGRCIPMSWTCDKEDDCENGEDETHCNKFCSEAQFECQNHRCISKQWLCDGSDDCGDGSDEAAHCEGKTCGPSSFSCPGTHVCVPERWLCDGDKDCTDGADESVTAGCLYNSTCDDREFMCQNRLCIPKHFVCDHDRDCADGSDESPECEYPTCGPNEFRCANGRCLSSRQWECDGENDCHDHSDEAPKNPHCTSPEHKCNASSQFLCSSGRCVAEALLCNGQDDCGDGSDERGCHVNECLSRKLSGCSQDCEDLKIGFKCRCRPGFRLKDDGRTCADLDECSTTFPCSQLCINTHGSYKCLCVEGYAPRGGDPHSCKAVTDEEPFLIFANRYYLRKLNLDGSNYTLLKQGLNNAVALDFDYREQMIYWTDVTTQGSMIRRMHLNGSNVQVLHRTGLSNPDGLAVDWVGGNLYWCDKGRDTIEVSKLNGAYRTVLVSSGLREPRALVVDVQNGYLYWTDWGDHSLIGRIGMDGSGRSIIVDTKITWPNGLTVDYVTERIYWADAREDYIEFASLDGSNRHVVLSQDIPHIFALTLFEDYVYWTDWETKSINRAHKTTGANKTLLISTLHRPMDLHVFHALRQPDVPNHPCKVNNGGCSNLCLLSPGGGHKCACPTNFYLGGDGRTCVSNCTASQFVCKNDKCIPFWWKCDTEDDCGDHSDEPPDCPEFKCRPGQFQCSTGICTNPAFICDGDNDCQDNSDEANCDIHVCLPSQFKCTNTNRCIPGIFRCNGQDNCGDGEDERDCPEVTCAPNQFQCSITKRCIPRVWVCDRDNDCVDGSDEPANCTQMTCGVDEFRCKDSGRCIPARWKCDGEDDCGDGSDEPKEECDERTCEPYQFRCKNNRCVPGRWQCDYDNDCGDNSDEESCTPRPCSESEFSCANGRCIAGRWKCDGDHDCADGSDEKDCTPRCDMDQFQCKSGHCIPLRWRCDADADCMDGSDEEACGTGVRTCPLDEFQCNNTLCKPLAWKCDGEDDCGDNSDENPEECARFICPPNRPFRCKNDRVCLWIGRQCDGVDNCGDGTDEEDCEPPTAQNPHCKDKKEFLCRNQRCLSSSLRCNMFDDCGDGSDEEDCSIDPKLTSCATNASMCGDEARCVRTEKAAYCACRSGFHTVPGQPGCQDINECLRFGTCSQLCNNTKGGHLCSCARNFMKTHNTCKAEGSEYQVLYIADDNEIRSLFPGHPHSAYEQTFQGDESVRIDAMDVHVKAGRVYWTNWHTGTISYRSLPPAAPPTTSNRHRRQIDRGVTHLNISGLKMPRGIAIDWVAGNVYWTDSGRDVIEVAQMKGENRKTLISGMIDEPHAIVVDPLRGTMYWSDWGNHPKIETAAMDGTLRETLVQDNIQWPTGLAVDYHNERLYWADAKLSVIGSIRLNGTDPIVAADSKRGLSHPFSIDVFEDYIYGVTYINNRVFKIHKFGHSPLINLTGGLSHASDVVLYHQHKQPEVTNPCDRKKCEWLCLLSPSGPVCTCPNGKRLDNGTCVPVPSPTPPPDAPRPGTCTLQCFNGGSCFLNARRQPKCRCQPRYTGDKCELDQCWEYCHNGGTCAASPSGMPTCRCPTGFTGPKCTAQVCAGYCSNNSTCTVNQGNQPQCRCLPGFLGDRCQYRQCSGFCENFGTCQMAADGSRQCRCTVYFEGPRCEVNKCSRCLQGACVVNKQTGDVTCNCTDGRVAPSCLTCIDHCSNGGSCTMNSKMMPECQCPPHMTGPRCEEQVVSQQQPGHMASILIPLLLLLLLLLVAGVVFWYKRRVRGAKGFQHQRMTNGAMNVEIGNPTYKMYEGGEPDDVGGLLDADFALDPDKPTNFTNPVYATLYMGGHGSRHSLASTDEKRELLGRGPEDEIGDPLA

No constants are given. Whether binding was seen depends on the method and setting. Binding seen in cells or lysates may run through a third protein. These calls come from enrichment with a bait or labelling near it, and not all partners need be listed.

Test [1] addresses ELMO1 (mouse (endogenous in osteoclasts)) (UniProt Q8BPU7). The test is described as follows: affinity purification with mass spectrometry; total ELMO1 interactome: ELMO1 immunoprecipitated (mouse anti-ELMO1, Protein A agarose) from Triton X-100 lysate of mature mouse osteoclasts; SDS-PAGE, LC-MS/MS; Elmo1+/+ and Elmo1-/- osteoclasts.
For test [2] the target is unchanged. Briefly: affinity purification with mass spectrometry; cell surface proteins of mature mouse osteoclasts labelled with NHS-Biotin; ELMO1 immunoprecipitated (mouse anti-ELMO1, Protein A agarose) from Triton X-100 lysate; immunoprecipitate heated 5 min at 95 °C, biotinylated proteins enriched with NeutrAvidin agarose; SDS-PAGE, LC-MS/MS; Elmo1+/+ and Elmo1-/- osteoclasts.

For ATP6V0D2 (from UniProt Q80SY3 1-350), the binding entry in test [1] is listed as “binds”.
With “LRP1 (from UniProt Q91ZX7 20-4545) (receptor)”, in test [2], the binding result is given as “binds”.

B1: KCNAB2 (protein, UniProt P62482 1-367)
chain: MYPESTTGSPARLSLRQTGSPGMIYSTRYGSPKRQLQFYRNLGKSGLRVSCLGLGTWVTFGGQITDEMAEHLMTLAYDNGINLFDTAEVYAAGKAEVVLGNIIKKKGWRRSSLVITTKIFWGGKAETERGLSRKHIIEGLKASLERLQLEYVDVVFANRPDPNTPMEETVRAMTHVINQGMAMYWGTSRWSSMEIMEAYSVARQFNLIPPICEQAEYHMFQREKVEVQLPELFHKIGVGAMTWSPLACGIVSGKYDSGIPPYSRASLKGYQWLKDKILSEEGRRQQAKLKELQAIAERLGCTLPQLAIAWCLRNEGVSSVLLGASNAEQLMENIGAIQVLPKLSSSIVHEIDSILGNKPYSKKDYRS
In the case of B1, in test [1], the binding result was “binds”.

B2: Osteoactivin (receptor, UniProt Q99P91 23-574)
chain: KRFRDVLGHEQYPDHMREHNQLRGWSSDENEWDEHLYPVWRRGDGRWKDSWEGGRVQAVLTSDSPALVGSNITFVVNLVFPRCQKEDANGNIVYEKNCRNDLGLTSDLHVYNWTAGADDGDWEDGTSRSQHLRFPDRRPFPRPHGWKKWSFVYVFHTLGQYFQKLGRCSARVSINTVNLTAGPQVMEVTVFRRYGRAYIPISKVKDVYVITDQIPVFVTMSQKNDRNLSDEIFLRDLPIVFDVLIHDPSHFLNDSAISYKWNFGDNTGLFVSNNHTLNHTYVLNGTFNLNLTVQTAVPGPCPPPSPSTPPPPSTPPSPPPSPLPTLSTPSPSLMPTGYKSMELSDISNENCRINRYGYFRATITIVEGILEVSIMQIADVPMPTPQPANSLMDFTVTCKGATPMEACTIISDPTCQIAQNRVCSPVAVDGLCLLSVRRAFNGSGTYCVNFTLGDDASLALTSTLISIPGKDPDSPLRAVNGVLISIGCLAVLVTMVTILLYKKHKAYKPIGNCPRNTVKGKGLSVLLSHAKAPFFRGDQEKDPLLQDKPRTL
modifications: biotin (cell surface labelling with EZ-Link NHS-Biotin)
Turning to B2, the binding entry in test [2] is reported as “binds”.

B3: HVCN1 (protein, UniProt Q3U2S8 1-269)
chain: MTSHDPKAVTRRTKVAPTKRMSRFLKHFTVVGDDYHTWNVNYKKWENEEEEEEPAPTSAEGEGNAEGPDAEAGSASTPRQSLDFRSRLRKLFSSHRFQVIIICLVVLDALLVLAELLLDLKIIEPDEQDYAVTAFHYMSFAILVFFMLEIFFKIFVFRLEFFHHKFEILDAFVVVVSFVLDLVLLFKSHHFEALGLLILLRLWRVARIINGIIISVKTRSERQILRLKQINIQLATKIQHLEFSCSEKEQEIERLNKLLKQNGLLGDVN
Regarding B3, the binding result in test [1] is reported as “binds”.

B4: SIRPα (receptor, UniProt P97797 32-513)
chain: KELKVTQPEKSVSVAAGDSTVLNCTLTSLLPVGPIRWYRGVGPSRLLIYSFAGEYVPRIRNVSDTTKRNNMDFSIRISNVTPADAGIYYCVKFQKGSSEPDTEIQSGGGTEVYVLAKPSPPEVSGPADRGIPDQKVNFTCKSHGFSPRNITLKWFKDGQELHPLETTVNPSGKNVSYNISSTVRVVLNSMDVNSKVICEVAHITLDRSPLRGIANLSNFIRVSPTVKVTQQSPTSMNQVNLTCRAERFYPEDLQLIWLENGNVSRNDTPKNLTKNTDGTYNYTSLFLVNSSAHREDVVFTCQVKHDQQPAITRNHTVLGFAHSSDQGSMQTFPDNNATHNWNVFIGVGVACALLVVLLMAALYLLRIKQKKAKGSTSSTRLHEPEKNAREITQVQSLIQDTNDINDITYADLNLPKEKKPAPRAPEPNNHTEYASIETGKVPRPEDTLTYADLDMVHLSRAQPAPKPEPSFSEYASVQVQRK
modifications: biotin (cell surface labelling with EZ-Link NHS-Biotin)
Consider B4, for which the binding entry in test [2] is “binds”.
